Measurements as given in PubChem BioAssay AID1671190 (National Center for Advancing Translational Sciences (NCATS), 2021).
About 6,100 (1.1%) of roughly 580,000 compounds were called active. Inconclusive means that the source gave no clear call. Such entries were picked first, then a sample of the others. Calls follow the shape of the dose curve; as a rule, active = well fitted inhibition curve with a large enough effect; inconclusive = small, poorly fitted or top-dose-only effect, or another doubt; inactive = no such curve, though single readings can be large or run the other way. Potencies beside an inconclusive call are fits to weak or partial responses and may not hold up.

Sequences of proteins named here, by UniProt entry; tags and fusion partners are left off.
UniProt P18054, whole entry, looked up: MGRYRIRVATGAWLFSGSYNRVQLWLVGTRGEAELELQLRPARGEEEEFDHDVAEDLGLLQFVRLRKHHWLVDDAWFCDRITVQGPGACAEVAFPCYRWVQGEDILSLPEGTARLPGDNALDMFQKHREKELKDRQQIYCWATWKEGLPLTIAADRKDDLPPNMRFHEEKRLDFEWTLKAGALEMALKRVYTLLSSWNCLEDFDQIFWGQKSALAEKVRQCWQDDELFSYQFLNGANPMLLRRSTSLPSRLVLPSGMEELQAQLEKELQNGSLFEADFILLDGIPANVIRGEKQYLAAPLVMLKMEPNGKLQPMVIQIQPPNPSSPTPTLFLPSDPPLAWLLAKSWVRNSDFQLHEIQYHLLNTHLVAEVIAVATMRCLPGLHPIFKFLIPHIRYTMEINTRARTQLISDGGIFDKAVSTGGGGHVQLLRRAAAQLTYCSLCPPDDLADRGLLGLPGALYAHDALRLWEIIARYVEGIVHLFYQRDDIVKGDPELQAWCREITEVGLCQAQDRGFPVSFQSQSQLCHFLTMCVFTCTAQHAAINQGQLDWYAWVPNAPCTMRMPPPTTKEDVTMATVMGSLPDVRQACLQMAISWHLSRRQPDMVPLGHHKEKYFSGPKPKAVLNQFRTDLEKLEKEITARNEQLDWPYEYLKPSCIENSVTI

Molecular target: Polyunsaturated fatty acid lipoxygenase ALOX12 (Homo sapiens) (UniProt P18054)
Assay: Primary qHTS assay for inhibitors of human arachidonate 12S-lipoxygenase (ALOX12): Round 2
Conditions: purified 12hLO, xylenol orange hydroperoxide absorbance; activity change, negative = inhibition: at 108 µM (top of the series) unless noted
Summary of the method: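 Purified human 12hLO at 150 nM in 25 mM Hepes, 0.01% Triton X-100, pH 7.0, preincubated 15 min at room temperature with compound. Reaction started with 40 uM arachidonic acid, 30 min at room temperature. Hydroperoxide measured by Fe-xylenol orange, 573/405 nm absorbance ratio.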
% is scaled to controls: 0 for no effect and ±100 for the full control effect; potency is read from the fitted curve at half-maximal effect.

Structure (SMILES) | Potency | activity change, negative = inhibition
O=C1NCCCc2c1oc1cc(Br)c(O)c(Br)c21 | inconclusive: 126 µM [inhibitor, partial curve, poor fit] | –
COc1ccc(Cl)cc1NC(=O)CSC1=NN2CCCC(=O)N=C2S1 | – | inactive: -14.2%
O=C1c2c(O)cccc2[C@@H]([C@@H]2O[C@H](CO)[C@@H](O)[C@H](O)[C@H]2O)c2cc(CO)cc(O)c21 | inconclusive: 50.1 µM [inhibitor, partial curve, poor fit] | –
COc1ccccc1NC(=O)N1CCC(c2nc3cc(C)c(C)cc3[nH]2)CC1 | – | inactive: -2.51%
O=S(=O)(Nc1nc2ccccc2nc1Nc1cccc(F)c1)c1cccs1 | inconclusive: 158 µM [inhibitor, single point] | –
CCCc1cc(=O)[nH]c(SCC(=O)Nc2sc3c(c2C#N)CCCC3)n1 | inconclusive: 79.4 µM [inhibitor, partial curve, poor fit] | –
COc1ccc(C(=O)c2sc(Nc3cccc(C)c3)nc2N)cc1OC | – | inactive: -21.4%
Nc1sccc1C(=O)N1CCN(c2ccccc2)CC1 | inconclusive: 39.8 µM [inhibitor, partial curve, poor fit] | –
CCCCOc1ccc(/C=C(\C#N)c2nc(-c3ccc(Cl)cc3)cs2)cc1 | inconclusive: 56.2 µM [inhibitor, partial curve, poor fit] | –
CN1CCN(c2cc3c(c4c2[nH]c2ccccc24)C(=O)CC(C)(C)C3)CC1 | active: 39.8 µM | –
Cc1cccc(C)c1NC(=O)Cn1c(=O)n(CCC(=O)NCc2ccccc2Cl)c(=O)c2sccc21 | inconclusive: 126 µM [inhibitor, partial curve, poor fit] | –
COc1cccc(CN2CCN(Cc3cc(OC)c(OC)c(OC)c3)CC2)c1OC | inconclusive: 3.55 µM [inhibitor, full curve] | –
Cc1nn(-c2ccccc2)nc1CNC(=O)c1ncoc1-c1ccccc1 | – | inactive: 85.3%
Cc1cccc(C(=O)Nc2c(NCC3CCCCC3)c3ccccc3oc2=O)c1 | inconclusive: 3.98 µM [inhibitor, full curve, poor fit] | –
CCN(CC)CCN1C(=O)c2ccccc2NC1c1ccc(Br)cc1 (stereo unspecified) | inconclusive: 31.6 µM [inhibitor, partial curve, poor fit] | –
COc1cc2c(cc1OC)C(c1ccccc1)N(CC(=O)Nc1ccc(C(N)=O)cc1)CC2 (stereo unspecified) | inconclusive: 158 µM [inhibitor, partial curve, poor fit] | –
COc1ccc(CCn2c(NC3CCCCC3)nc3c2c(=O)[nH]c(=O)n3C)cc1 | – | inactive: 21.9%
COCCCNC(=O)c1cc(-c2ccncc2)nc2ccccc12 | inconclusive: 31.6 µM [inhibitor, single point] | –
CC(C)C1=NN(C(=O)c2cccnc2)C(O)(C(F)(F)F)C1 (stereo unspecified) | – | inactive: 1.77%
Cc1ccc2c(c1)C(c1ccc(F)cc1)N(C(=O)Cc1cccc3ccccc13)CC(=O)N2 (stereo unspecified) | inconclusive: 89.1 µM [inhibitor, single point] | –
Cc1ccccc1C1=NN(S(C)(=O)=O)C(c2ccc3nccnc3c2)C1 (stereo unspecified) | – | inactive: -17.4%
O=C(Cn1nc2c(cc1=O)CCCCC2)NCCc1ccco1 | – | inactive: 38.4%

Gathered by group: the entries above with a carbonyl joined to an NH by a bond outside any ring.
Structure (SMILES) | Potency | activity change, negative = inhibition
COc1ccc(Cl)cc1NC(=O)CSC1=NN2CCCC(=O)N=C2S1 | – | inactive: -14.2%
COc1ccccc1NC(=O)N1CCC(c2nc3cc(C)c(C)cc3[nH]2)CC1 | – | inactive: -2.51%
CCCc1cc(=O)[nH]c(SCC(=O)Nc2sc3c(c2C#N)CCCC3)n1 | inconclusive: 79.4 µM [inhibitor, partial curve, poor fit] | –
Cc1cccc(C)c1NC(=O)Cn1c(=O)n(CCC(=O)NCc2ccccc2Cl)c(=O)c2sccc21 | inconclusive: 126 µM [inhibitor, partial curve, poor fit] | –
Cc1nn(-c2ccccc2)nc1CNC(=O)c1ncoc1-c1ccccc1 | – | inactive: 85.3%
Cc1cccc(C(=O)Nc2c(NCC3CCCCC3)c3ccccc3oc2=O)c1 | inconclusive: 3.98 µM [inhibitor, full curve, poor fit] | –
COc1cc2c(cc1OC)C(c1ccccc1)N(CC(=O)Nc1ccc(C(N)=O)cc1)CC2 (stereo unspecified) | inconclusive: 158 µM [inhibitor, partial curve, poor fit] | –
COCCCNC(=O)c1cc(-c2ccncc2)nc2ccccc12 | inconclusive: 31.6 µM [inhibitor, single point] | –
O=C(Cn1nc2c(cc1=O)CCCCC2)NCCc1ccco1 | – | inactive: 38.4%

Exported in markdown: entries from further up

| Structure (SMILES) | Potency | activity change, negative = inhibition |
| --- | --- | --- |
| COc1ccccc1NC(=O)N1CCC(c2nc3cc(C)c(C)cc3[nH]2)CC1 | – | inactive: -2.51% |
| COc1ccc(C(=O)c2sc(Nc3cccc(C)c3)nc2N)cc1OC | – | inactive: -21.4% |

Remaining list, next part

Structure (SMILES) | Potency | activity change, negative = inhibition
Cc1ccc(N2CC(NC(=O)N3CCN(C(=O)c4ccco4)CC3)CC2=O)cc1 (stereo unspecified) | – | inactive: -31%
COc1cc(Cl)c(CC(=O)c2c[nH]c3ccccc23)cc1OC | – | inactive: -2.7%
COCCN1CCC2(C1)CN(C)c1ccc(C(=O)Nc3ccc(F)cc3)cc12 (stereo unspecified) | inconclusive: 39.8 µM [inhibitor, full curve, poor fit] | –
O=C(CCCc1cccs1)NC1CC1 | inconclusive: 2.82 µM [inhibitor, full curve, poor fit] | –
C=CCN=C1NN=C(c2cc(C)n(CCOC)c2C)CS1 | inconclusive: 112 µM [inhibitor, partial curve, poor fit] | –
COc1ccc(C(=O)N2CCN(Cc3ccc4c(c3)OCO4)CC2)cc1OC | inconclusive: 1.58 µM [inhibitor, full curve, poor fit] | –
COc1ccc(Nc2nc(-c3ccc(CNC(C)=O)cc3)cs2)cc1 | inconclusive: 17.8 µM [inhibitor, full curve, poor fit] | –
O=Cc1cccn1-c1cccc(Br)c1 | – | inactive: 10.1%
CCc1cc[n+](/C(C(=S)Nc2cccc(C)c2)=C(/[O-])c2ccc(C)c([N+](=O)[O-])c2)cc1 | inconclusive: 89.1 µM [inhibitor, partial curve, poor fit] | –
O=c1cnc2cncnc2n1Cc1ccccc1Cl | inconclusive: 56.2 µM [inhibitor, partial curve, poor fit] | –
c1ccc(C[n+]2csc3ccccc32)cc1 | inconclusive: 6.31 µM [inhibitor, full curve] | –
COCc1cc(C)nc(SCC[N+](C)(C)CC(=O)Nc2cccc(C(F)(F)F)c2)c1C#N | – | inactive: 12.9%
COc1cc(/C=C2\SC(=O)N(CCNC(=O)c3cnc(C)cn3)C2=O)cc(OC)c1OC | inconclusive: 100 µM [inhibitor, partial curve, poor fit] | –
Cc1cc(NC(=O)CSc2nc3c(c(=O)n(C)c(=O)n3C)n2Cc2ccccc2C)ccc1F | inconclusive: 63.1 µM [inhibitor, single point] | –
CCCNC(=O)N[C@@H]1CCC[C@@H](C(=O)NCc2cc(F)cc(F)c2)CC(=O)N(C)C1 | inconclusive: 39.8 µM [inhibitor, partial curve, poor fit] | –
O=C1CN(C(=O)CNCc2ccccc2Cl)c2ccccc2N1 | inconclusive: 0.447 µM [inhibitor, full curve, poor fit] | –
CCC1CCC(N2CCN(c3cccc(OC)c3)CC2)CC1 (stereo unspecified) | inconclusive: 8.91 µM [inhibitor, full curve, poor fit] | –
CCOc1ccc(C(c2nnnn2C(C)(C)C)N2CCN(C(=O)c3ccco3)CC2)cc1 (stereo unspecified) | – | inactive: -5.1%
O=C(NCCSc1c(-c2ccccc2)[nH]c2ccccc12)c1ccc(S(=O)(=O)N2CCOCC2)cc1 | – | inactive: -2.48%
COc1ccc(CNC(=O)C(NC(C)=O)C(=O)Nc2ccc(C(C)C)cc2)cc1 (stereo unspecified) | – | inactive: -12.6%
Cc1ccc(S(=O)(=O)Cn2nnnc2C(C)N2CCN(C(=O)c3ccco3)CC2)cc1 (stereo unspecified) | inconclusive: 44.7 µM [inhibitor, partial curve, poor fit] | –
CCOC(=O)C1CCCN(C(=O)C2CC(c3ccc(F)c(C)c3)CN(C(=O)NC(C)C)C2)C1 (stereo unspecified) | – | inactive: 101%

Structure (SMILES) | Potency | activity change, negative = inhibition
COc1cc(/C=N/Nc2cccc3cccnc23)cc(OC)c1O | – | inactive: -25.9%
O=C1C(N2CCOCC2)=Cc2cccc3cccc1c23 | inconclusive: 44.7 µM [inhibitor, partial curve, poor fit] | –
CC(COc1ccc(/C=C/c2ccccc2)cc1)[N+](C)(C)C (stereo unspecified) | inconclusive: 50.1 µM [inhibitor, partial curve, poor fit] | –
COc1ccccc1NC(=O)COc1ccc(C(F)(F)F)cc1[N+](=O)[O-] | – | inactive: -7.59%
Cc1ccccc1OCc1ccc(-c2nc(C#N)c(N3CCC(C(N)=O)CC3)o2)o1 | inconclusive: 158 µM [inhibitor, partial curve, poor fit] | –
Cc1cc(CN2CCCC(CNC(=O)c3ccc(F)cc3)C2)cc(C)c1O (stereo unspecified) | – | inactive: -7.55%
CCCCNS(=O)(=O)NC(=O)C1=C(N2CCCC2)COC1=O | inconclusive: 44.7 µM [inhibitor, partial curve, poor fit] | –
ClCCn1cnc2c(SCc3ccccc3Cl)ncnc21 | inconclusive: 44.7 µM [inhibitor, partial curve, poor fit] | –
CC(=O)N1CCN(Cc2nc3cc(NC(=O)COc4cccc(C)c4)ccc3n2C)CC1 | inconclusive: 12.6 µM [inhibitor, partial curve, poor fit] | –
CC1(Oc2ccc(Cl)cc2)CCN(Cc2csc3ccccc23)C1 (stereo unspecified) | inconclusive: 44.7 µM [inhibitor, partial curve, poor fit] | –
COC(=O)c1ccccc1NC(=O)CN1C(=O)NC2(CCCCCCC2)C1=O | inconclusive: 112 µM [inhibitor, single point] | –
Cc1ccc(CNC(=O)C2(C)Oc3ccccc3NC2=O)cc1 (stereo unspecified) | – | inactive: 0%
CC(C)c1ccc(NC(=S)NCc2ccc3c(c2)OCO3)cc1 | inconclusive: 31.6 µM [inhibitor, partial curve, poor fit] | –
COC(=O)c1ccc(C)c(NC(=O)Cc2ccc(OC)cc2OC)c1 | inconclusive: 126 µM [inhibitor, partial curve, poor fit] | –
COC(=O)c1ccc(CN2C(=O)[C@@H]3C[C@@H](O)CN3C3(CN(CC4CC4)C3)C2=O)cc1 | inconclusive: 5.62 µM [inhibitor, full curve, poor fit] | –
Brc1cc2c(cc1Br)OCCOCCOCCO2 | inconclusive: 112 µM [inhibitor, partial curve, poor fit] | –
COCCNC(=S)N/N=C/c1ccc(C(C)(C)C)cc1 | inconclusive: 44.7 µM [inhibitor, partial curve, poor fit] | –
O=C(/C=C/c1ccccc1)NNC(=S)NCc1ccccc1 | inconclusive: 56.2 µM [inhibitor, partial curve, poor fit] | –
COc1ccc2nc(NC(=O)c3cc(S(=O)(=O)N4CCOCC4)ccc3C)sc2c1 | – | inactive: 0%
COc1ccc(/C=C/C(=O)c2ccc(Cl)s2)cc1O | inconclusive: 31.6 µM [inhibitor, partial curve] | –
CCC1=C(C(=O)OC)C(c2ccc(OC)cc2OC)N2C(CC(=O)NC3CC3)=CSC2=N1 (stereo unspecified) | – | inactive: 27.5%
COc1ccccc1Cc1c(-c2ccc(C)cc2)nc2ccc(Cl)cn12 | inconclusive: 31.6 µM [inhibitor, partial curve, poor fit] | –
